The supplement of paper PMC10849652
Some of the results follow.

The chains behind the UniProt entries cited, without tags or fusion partners. Where a name states a change or a piece, a line headed by the entry shows the natural chain unless it says otherwise.
UniProt Q92901: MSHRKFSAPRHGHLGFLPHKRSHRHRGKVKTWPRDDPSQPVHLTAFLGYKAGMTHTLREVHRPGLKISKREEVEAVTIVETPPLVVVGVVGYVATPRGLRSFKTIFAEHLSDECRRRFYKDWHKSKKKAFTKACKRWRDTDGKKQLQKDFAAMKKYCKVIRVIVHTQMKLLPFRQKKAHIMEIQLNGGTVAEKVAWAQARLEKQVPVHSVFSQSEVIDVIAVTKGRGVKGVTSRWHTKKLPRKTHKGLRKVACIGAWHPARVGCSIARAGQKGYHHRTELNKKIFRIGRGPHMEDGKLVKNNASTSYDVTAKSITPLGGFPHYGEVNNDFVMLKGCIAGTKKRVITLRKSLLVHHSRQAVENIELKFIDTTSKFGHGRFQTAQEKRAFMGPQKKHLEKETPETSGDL
UniProt Q9BUL9: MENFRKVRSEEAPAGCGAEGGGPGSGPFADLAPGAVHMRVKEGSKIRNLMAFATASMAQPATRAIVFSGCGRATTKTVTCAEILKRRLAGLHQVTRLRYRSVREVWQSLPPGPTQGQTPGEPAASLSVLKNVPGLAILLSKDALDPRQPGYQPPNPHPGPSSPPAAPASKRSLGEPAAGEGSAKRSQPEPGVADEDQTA
UniProt O75818: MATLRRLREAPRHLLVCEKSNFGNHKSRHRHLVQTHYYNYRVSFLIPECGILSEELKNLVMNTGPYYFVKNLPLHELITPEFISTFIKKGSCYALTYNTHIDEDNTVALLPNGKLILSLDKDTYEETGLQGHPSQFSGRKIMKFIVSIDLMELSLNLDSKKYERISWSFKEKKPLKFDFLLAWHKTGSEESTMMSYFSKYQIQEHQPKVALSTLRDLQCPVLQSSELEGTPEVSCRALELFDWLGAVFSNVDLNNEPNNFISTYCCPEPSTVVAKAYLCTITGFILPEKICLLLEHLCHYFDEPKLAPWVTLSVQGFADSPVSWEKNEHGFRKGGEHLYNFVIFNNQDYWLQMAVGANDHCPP
UniProt Q86WX3: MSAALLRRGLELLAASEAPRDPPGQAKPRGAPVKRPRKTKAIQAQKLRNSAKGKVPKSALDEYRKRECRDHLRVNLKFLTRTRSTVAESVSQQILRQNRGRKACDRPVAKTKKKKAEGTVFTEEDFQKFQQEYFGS
UniProt Q9NYV6: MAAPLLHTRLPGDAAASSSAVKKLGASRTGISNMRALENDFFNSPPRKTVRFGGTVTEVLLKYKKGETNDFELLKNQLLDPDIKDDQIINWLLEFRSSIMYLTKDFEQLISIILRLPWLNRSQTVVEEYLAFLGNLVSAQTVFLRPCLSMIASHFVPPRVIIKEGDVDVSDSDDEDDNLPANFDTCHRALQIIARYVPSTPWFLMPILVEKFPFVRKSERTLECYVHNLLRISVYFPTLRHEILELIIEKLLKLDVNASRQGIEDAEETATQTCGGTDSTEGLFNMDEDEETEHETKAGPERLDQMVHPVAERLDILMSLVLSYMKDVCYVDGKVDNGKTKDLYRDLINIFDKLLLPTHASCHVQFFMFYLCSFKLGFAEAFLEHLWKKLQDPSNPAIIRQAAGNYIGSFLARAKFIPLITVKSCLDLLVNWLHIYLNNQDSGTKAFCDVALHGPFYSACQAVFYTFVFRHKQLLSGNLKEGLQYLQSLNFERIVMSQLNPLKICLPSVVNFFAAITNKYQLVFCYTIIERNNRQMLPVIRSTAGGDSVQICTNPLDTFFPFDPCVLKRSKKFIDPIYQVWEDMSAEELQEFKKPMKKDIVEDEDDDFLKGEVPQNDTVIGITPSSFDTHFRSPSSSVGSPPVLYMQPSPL
UniProt Q7LG56, whole entry, looked up: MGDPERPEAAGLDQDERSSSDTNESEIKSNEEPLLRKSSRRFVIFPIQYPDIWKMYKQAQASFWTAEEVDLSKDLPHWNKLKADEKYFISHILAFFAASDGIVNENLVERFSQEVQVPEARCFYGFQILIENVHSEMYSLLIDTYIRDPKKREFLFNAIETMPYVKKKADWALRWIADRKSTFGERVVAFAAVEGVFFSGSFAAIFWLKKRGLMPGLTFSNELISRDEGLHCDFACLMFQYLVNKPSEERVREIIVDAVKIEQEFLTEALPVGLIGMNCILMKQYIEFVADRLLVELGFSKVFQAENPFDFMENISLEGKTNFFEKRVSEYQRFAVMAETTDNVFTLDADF
UniProt P15927: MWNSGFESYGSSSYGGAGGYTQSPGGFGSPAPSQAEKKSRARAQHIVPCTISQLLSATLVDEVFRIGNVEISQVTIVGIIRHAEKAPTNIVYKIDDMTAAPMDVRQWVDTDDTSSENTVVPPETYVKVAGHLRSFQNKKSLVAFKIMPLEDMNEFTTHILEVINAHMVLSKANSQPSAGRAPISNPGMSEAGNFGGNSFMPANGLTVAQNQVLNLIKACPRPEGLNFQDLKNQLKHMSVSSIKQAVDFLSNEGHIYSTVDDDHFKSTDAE
UniProt Q9GZN7, whole entry, looked up: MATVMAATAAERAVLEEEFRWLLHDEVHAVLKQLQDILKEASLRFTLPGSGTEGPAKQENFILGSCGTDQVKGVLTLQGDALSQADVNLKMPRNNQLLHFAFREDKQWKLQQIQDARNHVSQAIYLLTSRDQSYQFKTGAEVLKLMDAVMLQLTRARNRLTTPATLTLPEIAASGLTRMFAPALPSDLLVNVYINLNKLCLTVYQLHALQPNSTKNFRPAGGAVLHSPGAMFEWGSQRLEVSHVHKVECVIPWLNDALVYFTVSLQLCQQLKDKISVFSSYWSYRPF
UniProt Q92766: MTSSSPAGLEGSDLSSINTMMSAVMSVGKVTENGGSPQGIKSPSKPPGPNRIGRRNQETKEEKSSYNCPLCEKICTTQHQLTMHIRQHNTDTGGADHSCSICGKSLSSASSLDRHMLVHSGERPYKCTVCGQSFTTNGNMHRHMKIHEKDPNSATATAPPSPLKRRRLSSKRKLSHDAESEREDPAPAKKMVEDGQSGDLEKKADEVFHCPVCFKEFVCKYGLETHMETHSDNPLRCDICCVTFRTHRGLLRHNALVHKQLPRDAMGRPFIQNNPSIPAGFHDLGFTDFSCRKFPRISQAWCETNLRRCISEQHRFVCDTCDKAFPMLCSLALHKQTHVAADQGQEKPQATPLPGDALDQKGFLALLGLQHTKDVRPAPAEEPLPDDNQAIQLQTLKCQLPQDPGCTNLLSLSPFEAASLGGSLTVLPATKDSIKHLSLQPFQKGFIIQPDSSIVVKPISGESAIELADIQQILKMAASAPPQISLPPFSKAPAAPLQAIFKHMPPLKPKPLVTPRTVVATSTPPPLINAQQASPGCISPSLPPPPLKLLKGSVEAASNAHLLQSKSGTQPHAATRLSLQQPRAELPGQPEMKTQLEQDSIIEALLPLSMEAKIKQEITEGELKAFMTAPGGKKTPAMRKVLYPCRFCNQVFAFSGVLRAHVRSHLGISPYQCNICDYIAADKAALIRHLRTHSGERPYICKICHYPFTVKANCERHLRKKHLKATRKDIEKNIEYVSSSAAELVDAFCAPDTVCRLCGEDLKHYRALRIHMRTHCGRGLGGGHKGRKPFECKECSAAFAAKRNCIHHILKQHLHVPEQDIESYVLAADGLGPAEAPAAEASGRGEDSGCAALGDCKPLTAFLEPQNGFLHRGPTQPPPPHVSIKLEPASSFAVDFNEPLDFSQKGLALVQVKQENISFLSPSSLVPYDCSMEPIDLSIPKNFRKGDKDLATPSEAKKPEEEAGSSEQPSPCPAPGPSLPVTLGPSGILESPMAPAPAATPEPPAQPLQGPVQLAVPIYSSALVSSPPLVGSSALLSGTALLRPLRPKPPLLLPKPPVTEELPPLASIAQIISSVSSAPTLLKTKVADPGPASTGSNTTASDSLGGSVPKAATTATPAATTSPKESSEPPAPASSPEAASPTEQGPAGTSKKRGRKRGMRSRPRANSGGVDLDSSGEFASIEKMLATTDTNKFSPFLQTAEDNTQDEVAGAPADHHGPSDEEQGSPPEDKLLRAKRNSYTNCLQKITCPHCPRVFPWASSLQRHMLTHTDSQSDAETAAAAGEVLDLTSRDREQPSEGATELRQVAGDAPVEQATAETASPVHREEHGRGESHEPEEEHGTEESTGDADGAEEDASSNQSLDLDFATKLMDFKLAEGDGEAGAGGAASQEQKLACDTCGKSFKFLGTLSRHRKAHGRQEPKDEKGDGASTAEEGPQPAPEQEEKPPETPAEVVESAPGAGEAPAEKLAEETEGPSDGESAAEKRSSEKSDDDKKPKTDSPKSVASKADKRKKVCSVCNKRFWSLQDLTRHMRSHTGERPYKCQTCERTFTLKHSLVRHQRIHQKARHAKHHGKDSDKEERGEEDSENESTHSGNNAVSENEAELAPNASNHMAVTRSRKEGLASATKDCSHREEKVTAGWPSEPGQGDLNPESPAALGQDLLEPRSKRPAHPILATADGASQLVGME
UniProt P23443: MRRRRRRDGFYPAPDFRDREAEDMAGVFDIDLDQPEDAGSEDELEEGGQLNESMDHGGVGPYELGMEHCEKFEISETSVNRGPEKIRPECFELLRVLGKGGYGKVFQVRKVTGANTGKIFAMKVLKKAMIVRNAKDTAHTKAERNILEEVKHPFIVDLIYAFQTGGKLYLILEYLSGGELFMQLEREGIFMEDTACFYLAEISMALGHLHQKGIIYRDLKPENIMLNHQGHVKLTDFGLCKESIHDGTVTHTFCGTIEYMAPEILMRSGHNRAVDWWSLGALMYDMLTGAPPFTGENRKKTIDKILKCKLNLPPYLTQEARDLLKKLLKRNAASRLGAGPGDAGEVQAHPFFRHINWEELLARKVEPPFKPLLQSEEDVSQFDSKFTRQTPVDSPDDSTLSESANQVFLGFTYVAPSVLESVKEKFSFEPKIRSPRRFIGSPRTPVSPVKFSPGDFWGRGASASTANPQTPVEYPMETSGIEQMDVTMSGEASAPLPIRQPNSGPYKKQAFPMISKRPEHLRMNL
UniProt O75695: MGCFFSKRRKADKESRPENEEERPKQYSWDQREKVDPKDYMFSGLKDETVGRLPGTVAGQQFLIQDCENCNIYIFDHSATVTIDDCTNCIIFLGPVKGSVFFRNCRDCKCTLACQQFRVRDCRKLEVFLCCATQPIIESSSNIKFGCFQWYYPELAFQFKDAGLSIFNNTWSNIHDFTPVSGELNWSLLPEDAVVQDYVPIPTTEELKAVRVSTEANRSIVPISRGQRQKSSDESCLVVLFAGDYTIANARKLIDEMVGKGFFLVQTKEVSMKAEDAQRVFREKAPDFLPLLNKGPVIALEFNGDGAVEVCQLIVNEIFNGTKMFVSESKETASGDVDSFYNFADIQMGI
UniProt Q96BH1: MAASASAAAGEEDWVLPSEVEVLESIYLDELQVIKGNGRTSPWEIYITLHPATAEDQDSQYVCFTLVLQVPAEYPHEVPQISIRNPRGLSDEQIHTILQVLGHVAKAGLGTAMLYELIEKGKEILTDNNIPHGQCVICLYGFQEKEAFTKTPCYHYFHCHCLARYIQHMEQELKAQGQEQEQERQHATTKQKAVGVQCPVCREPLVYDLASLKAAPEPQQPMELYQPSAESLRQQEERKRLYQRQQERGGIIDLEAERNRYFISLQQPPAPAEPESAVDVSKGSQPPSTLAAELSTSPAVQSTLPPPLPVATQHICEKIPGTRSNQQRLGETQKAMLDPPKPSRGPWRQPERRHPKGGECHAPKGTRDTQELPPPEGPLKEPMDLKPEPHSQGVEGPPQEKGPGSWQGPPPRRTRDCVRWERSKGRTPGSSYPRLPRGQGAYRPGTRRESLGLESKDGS
UniProt Q99942: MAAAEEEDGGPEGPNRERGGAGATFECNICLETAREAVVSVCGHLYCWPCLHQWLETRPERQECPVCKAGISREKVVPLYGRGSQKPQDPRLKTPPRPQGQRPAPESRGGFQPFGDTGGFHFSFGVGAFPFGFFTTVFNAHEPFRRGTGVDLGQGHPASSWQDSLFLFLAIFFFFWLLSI
UniProt P05387, whole entry, looked up: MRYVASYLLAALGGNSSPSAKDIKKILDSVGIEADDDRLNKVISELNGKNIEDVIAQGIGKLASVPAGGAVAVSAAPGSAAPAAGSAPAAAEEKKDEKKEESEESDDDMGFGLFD

compound: c1cn2cc(-c3ccc4cn[nH]c4c3)nc(Nc3ccc(N4CCOCC4)cc3)c2n1 [entospletinib]; experiment: log2 fold change, soluble protein after heating vs DMSO (PISA); higher = thermal stabilisation; K562 cells, 10 uM, 30 min; active = over 0.2 and 3.5 SD of the protein, either way, in both replicates (recomputed)
Procedure, shortened: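 Thermal stability values are relative to control samples and come from duplicates. They are expressed as log2 fold changes. For measurement, K562 cells (2×10^6 cells/mL) received 10 μM compound for 30 min, and aliquots were heated for 3 min over 48°C-58°C, pooled, and extracted at 4°C in PBS with 0.5% NP-40. Soluble protein, the supernatant after 21,000xg for 90 min, was quantified by TMTpro 16plex LC-MS/MS with equalised channel sums.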

log2 fold change, inactive:
RPL3L (UniProt Q92901) 0.104
RPL10A (UniProt P62906) 0.152
RPS6 (UniProt P62753) 0.113
RPP25 (UniProt Q9BUL9) 0.159
RPS10 (UniProt P46783) 0.077
RPL21 (UniProt P46778) 0.175
RPL10 (UniProt P27635) 0.073
RPL15 (UniProt P61313) 0.111
RPP40 (UniProt O75818) 0.066
RPS19BP1 (UniProt Q86WX3) 0.053
RRN3 (UniProt Q9NYV6) -0.118
RPL19 (UniProt P84098) 0.173
RPL36A (UniProt P83881) 0.015
RPL39P5 (UniProt Q59GN2) 0.134
RPL29 (UniProt P47914) 0.128
RPL27 (UniProt P61353) 0.063
RPL7L1 (UniProt Q6DKI1) 0.205
RPL3 (UniProt P39023) 0.114
RRM2B isoform 6 (UniProt Q7LG56) 0.033
RPL24 (UniProt P83731) 0.077
RPL17 isoform 3 (UniProt P18621) 0.296
RPA2 isoform 3 (UniProt P15927) -0.026
ROGDI (UniProt Q9GZN7) 0.098
RPL6 (UniProt Q02878) 0.09
RREB1 isoform 2 (UniProt Q92766) 0.14
RPS6KB1 (UniProt P23443) -0.04
RP2 (UniProt O75695) 0.025
RPS24 isoform 4 (UniProt P62847) 0.057
RNF25 (UniProt Q96BH1) 0.024
RPS7, A0A2R8Y623 -0.211
RPL37 (UniProt P61927) 0.006
RNF5 (UniProt Q99942) -0.033
RPS27L (UniProt Q71UM5) 0.102
RPLP2 (UniProt P05387) 0.061

Looked up one by one from the list above, 2 records:
log2 fold change, inactive:
RPL3L (UniProt Q92901) 0.104
RPL36A (UniProt P83881) 0.015
